According to paper PMC8172852:
No constants are given. Whether binding was seen depends on the method and setting. Binding seen in cells or lysates may run through a third protein. These calls come from enrichment with a bait or labelling near it, and not all partners need be listed. Tags and fused reporters may be left off the sequences shown.

Chains of the proteins cited; added tags and fusions are not shown.
UniProt Q9W0E3: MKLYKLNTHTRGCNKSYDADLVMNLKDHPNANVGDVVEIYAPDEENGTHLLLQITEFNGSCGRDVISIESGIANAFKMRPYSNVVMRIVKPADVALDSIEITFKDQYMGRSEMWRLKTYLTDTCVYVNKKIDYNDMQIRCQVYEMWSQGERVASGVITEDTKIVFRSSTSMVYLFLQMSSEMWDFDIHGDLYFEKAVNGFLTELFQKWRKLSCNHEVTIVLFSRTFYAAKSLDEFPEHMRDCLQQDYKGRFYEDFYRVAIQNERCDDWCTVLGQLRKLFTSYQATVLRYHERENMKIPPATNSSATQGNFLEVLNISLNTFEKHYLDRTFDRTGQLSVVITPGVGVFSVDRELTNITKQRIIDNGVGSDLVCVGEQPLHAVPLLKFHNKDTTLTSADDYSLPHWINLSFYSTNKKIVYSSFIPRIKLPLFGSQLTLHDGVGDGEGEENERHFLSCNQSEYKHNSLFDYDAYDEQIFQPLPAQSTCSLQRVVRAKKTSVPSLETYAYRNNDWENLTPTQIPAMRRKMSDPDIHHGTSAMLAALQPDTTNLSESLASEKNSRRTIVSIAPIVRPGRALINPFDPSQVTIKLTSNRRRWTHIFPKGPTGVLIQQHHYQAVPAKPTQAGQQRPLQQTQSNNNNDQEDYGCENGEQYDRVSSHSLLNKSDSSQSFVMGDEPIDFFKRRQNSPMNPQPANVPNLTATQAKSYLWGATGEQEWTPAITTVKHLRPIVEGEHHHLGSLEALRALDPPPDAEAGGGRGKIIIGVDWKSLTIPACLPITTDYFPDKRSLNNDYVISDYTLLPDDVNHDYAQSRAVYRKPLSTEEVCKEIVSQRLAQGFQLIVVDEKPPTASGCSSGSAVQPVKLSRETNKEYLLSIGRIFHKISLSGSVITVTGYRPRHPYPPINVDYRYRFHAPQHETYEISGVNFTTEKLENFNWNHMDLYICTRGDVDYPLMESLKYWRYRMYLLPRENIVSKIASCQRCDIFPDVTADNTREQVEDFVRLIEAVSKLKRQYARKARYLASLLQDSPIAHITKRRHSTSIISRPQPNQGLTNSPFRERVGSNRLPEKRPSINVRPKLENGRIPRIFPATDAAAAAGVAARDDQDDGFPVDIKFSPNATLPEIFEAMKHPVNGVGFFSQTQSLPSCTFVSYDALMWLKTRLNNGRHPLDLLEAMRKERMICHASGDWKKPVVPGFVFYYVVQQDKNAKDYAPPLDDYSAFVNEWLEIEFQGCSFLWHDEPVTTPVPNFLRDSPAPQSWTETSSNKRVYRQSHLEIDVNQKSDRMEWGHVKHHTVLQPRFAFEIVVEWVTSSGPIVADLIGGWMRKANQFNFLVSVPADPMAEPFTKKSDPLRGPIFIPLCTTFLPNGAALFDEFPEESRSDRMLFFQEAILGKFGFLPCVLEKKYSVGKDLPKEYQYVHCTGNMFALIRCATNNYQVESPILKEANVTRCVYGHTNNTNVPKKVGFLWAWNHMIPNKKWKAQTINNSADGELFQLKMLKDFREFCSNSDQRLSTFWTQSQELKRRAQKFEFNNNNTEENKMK

T1: HA-FLAG tagged Nprl3 (Drosophila) (UniProt Q9VUB4)
T1 sequence: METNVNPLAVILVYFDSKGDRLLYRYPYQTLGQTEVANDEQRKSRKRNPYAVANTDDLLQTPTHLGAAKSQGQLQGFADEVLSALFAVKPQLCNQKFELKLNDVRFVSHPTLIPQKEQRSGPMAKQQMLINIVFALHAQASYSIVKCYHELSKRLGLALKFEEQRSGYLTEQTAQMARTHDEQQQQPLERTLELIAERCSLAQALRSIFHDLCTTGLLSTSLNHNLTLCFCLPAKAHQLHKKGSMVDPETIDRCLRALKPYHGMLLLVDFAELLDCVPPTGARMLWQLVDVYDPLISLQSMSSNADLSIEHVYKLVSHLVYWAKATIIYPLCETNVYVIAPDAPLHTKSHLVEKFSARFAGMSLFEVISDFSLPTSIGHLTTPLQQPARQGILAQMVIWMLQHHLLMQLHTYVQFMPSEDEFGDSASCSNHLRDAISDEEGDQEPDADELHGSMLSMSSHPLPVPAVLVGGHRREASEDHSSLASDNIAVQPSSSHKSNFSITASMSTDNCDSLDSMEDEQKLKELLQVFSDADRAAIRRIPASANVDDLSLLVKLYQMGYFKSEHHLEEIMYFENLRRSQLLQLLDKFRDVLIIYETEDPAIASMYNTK

B1: Seh1 (protein, UniProt Q7K2X8 1-354)
chain: MFDVEPIIADHKDVIHDVVFDYYGRRMATCSSDQTVKIWDEDGQGKWNVTSSWKAHSGSIWRVSWAHPEFGQVVATCSFDRTASVWEEVIGEKVSSTNTPTRRWVRRTTLVDSRTSVTDVEFAPKYLGLLLATASADGIIRIYEAPDIMNLSQWPVQHEISNKLPLSCLSWNTSTYMVTQLLAAGSDEAATPTGKVFLFAYSENSRKCVKIDTVNDITDPVTDVAFAPNAGRTFHMLAVASKDLYIVNLRGVTDATDISKLDIQTIKFSEHNCPVWRVCWNMLATMLISTGDDGCVRLWRMNYNRQWRCAAVLKAEGSGPTYEPAPPTPTLATTASATAKFYKKGTIGNQVPWH
B2: Mio (protein, UniProt Q9VQ89 1-867)
chain: MSGNTHGLSWFPHFPDKFVSWGQEIHLYEVRRKDDHSQKSRLPYISVNYLANESRYQYARCVAASYHSDQPIIAVGLADGKVGICNFRDTYDSSWEYTPRQQRMCTCLAWNELDANILAIGHDRHRNDTCITIWDIERGVPKETANFFGVGESANSICWDRNHRTVIAGMSQKMIKLFDLRQSNATCQSIQTKTVQGLSVSPNGNYLCSYVDSVITLWDPRNIKSPLRQIQSSKNHLQIAWCPTRTSLLSSLQRDSSYITLYDIRSVDTDNSGEIYHVKRQISPFPARYQHSGKFSFVNCLSWHSRDFERALLLADALNILDFRLPATLHTAHSNRRKLPLLMQRPLYTPASPTSTAATPTQQQPTSSCSTNSGSSLDFSTPGGSPFNVDLLKPELFELDLVDETRQRALEDYGIKPDNKRFGELHLTPYLRNVWSTLNNVYSEDRLTGLKATLGINLGHTSEALMASSRIESQVLQWPEGINNSNKLICYRSEQRDLALQLCGWAFEQELDRFIDQLYANKEYSRAAMICVFHLKIFHACNILSSAADNMRDPSMYRITVIALSSFNADRCSSTWRNQRSSANMQIHDPHLRAVFSFLTMEKDNFDAVLKEEGVSLSDRMAFACKYLSETKLADYVAQQIQAAIDGGDLNGLLLTGESQDGIDILQSYMDTSFDVQTVALVAINYFRQELFEDKRIQYWIASYLDHLNSWGLWEKRAELDIKIESIRPSSRSSRTVFLSCNFCGKSVSNALLDEPRPRSTTTSTNRLSSCPSCRKPLPRCSLCLMHMGTMVNMSNGETPTTTPDVPGWQTKPFSKWFSWCQTCRHGGHTEHIMQWFKQNSECPVSSCNCRCFDMDGTKPNTLRDIS
B3: FK506 binding protein 39 KD (FKBP39) (protein, UniProt P54397 1-357)
chain: MSMFWGLNMKPERKYSQTIIKSFHISGVALDKGQEAKLYLAAEKQEYIVATVTKAIPQVALDLNFSKGDRIMFYTAGDASVSLLGYLHDIDSEDDEDDDQMTIENLLNSKAIKNSKKSEDDEDENESGEEDEEDTDDDSQIIEEYESFLENGEEEDDDDVDEDNEESGEEDEQDSDDSEAEEEQPKAKVAKLSPGASAKKSGKEQNGVAKKEEAKQQQKKKEKPEAKKEQPKAKEPAKQQPASKDPRTITGGVKIVDQVVGKGEEAKQGKRVSVYYIGRLQSNNKTFDSLLKGKPFKFALGGGEVIKGWDVGVAGMKVGGKRVITCPPHMAYGARGAPPKIGPNSTLVFEVELKAVH

Target: T1, HA-FLAG tagged Nprl3 (Drosophila)
Experiment: affinity purification with mass spectrometry; tandem affinity purification of HA-FLAG-Nprl3 from lysates of Drosophila ovaries (MTD-GAL4 driver), control yw ovaries; quantitative mass spectrometry

Molecule | binding
Iml1 (from UniProt Q9W0E3 1-1544) | binds
B1 | binds
B2 | binds
B3 | binds
